Measurements: patent US20240060123
For some assays here: The comparison behind a weaker result is the experiment's own reference, which may not be listed here. For some assays here: Protein sequences can lack the tags named with them.

Amino acid sequences for entries named in this document (tags omitted). A change or cut given only in a name is not applied to a line headed by its entry.
UniProt O34996: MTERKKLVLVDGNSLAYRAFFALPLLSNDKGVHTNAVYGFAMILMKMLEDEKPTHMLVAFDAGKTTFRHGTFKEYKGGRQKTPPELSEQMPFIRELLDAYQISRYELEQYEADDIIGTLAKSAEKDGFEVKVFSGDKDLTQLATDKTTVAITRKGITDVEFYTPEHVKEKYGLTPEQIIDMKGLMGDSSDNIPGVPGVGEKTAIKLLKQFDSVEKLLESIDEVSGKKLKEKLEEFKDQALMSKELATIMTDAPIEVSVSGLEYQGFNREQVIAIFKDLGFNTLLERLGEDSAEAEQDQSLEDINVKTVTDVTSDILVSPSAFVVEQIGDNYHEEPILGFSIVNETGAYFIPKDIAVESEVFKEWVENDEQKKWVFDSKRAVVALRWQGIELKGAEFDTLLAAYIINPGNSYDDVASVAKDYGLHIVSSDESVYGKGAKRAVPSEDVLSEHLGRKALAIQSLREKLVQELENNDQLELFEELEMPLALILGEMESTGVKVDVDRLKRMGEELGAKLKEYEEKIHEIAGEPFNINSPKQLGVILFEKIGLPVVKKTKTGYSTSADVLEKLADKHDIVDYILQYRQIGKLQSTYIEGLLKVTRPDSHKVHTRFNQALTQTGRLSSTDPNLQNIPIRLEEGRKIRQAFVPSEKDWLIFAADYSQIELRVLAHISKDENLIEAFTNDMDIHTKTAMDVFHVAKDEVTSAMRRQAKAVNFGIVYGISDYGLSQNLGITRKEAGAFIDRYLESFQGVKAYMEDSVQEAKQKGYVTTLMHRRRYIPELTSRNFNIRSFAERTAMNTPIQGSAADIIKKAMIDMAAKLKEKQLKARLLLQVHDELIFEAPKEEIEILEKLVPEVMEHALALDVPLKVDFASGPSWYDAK
UniProt P19821: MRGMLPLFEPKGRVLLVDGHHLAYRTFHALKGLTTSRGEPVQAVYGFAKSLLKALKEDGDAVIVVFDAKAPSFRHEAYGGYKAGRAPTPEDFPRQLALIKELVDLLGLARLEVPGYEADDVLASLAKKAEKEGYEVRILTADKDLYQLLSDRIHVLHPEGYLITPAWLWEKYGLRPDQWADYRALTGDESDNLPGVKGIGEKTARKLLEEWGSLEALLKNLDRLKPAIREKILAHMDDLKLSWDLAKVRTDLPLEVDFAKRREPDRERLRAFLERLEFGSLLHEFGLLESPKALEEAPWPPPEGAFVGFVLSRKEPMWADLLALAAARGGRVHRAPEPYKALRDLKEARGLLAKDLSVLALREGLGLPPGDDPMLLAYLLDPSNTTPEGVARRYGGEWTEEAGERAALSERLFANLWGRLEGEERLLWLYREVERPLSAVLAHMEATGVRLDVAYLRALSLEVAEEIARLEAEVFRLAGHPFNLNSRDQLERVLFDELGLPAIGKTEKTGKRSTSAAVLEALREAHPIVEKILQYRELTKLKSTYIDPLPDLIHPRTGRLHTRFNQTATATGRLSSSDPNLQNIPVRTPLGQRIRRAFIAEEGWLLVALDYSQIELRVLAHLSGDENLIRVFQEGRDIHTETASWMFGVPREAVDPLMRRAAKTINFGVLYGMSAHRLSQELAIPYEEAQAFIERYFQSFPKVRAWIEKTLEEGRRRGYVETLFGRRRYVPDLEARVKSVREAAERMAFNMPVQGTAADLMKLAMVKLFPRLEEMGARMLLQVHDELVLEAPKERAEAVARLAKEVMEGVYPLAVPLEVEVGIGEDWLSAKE

Key:
[1] = tested on: T1, G4P-Bst DNA polymerase (G4P fused to N-terminus of Bst large fragment) (Geobacillus stearothermophilus); assay: inhibition of the protein; settings: purified recombinant protein, folded or branched DNA, dose not given here
T1 sequence: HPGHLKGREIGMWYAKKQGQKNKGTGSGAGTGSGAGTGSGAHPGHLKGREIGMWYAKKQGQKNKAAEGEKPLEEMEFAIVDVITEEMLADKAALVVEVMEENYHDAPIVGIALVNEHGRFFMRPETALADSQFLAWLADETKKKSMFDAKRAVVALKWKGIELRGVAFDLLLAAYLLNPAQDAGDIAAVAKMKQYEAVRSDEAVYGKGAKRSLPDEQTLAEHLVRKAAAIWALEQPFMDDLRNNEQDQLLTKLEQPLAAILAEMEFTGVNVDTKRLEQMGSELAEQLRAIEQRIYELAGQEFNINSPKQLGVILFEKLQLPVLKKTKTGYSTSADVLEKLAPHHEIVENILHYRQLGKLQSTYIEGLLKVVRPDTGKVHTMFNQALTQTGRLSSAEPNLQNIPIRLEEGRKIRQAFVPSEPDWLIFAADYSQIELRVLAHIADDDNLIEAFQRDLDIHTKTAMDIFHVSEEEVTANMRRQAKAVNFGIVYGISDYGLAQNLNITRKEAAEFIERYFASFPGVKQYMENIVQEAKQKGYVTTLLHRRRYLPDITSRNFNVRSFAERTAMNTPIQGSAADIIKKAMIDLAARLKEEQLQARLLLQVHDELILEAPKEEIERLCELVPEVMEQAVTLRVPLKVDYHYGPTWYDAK

G4P-Bsu DNA polymerase [2] = biological target: T2, G4P-Bsu DNA polymerase (UniProt O34996); assay: activity assay; settings: primer extension, active at 20-50 C; 10 mM MgCl2; purified recombinant protein; label: 5'-FAM on primer
T2 sequence: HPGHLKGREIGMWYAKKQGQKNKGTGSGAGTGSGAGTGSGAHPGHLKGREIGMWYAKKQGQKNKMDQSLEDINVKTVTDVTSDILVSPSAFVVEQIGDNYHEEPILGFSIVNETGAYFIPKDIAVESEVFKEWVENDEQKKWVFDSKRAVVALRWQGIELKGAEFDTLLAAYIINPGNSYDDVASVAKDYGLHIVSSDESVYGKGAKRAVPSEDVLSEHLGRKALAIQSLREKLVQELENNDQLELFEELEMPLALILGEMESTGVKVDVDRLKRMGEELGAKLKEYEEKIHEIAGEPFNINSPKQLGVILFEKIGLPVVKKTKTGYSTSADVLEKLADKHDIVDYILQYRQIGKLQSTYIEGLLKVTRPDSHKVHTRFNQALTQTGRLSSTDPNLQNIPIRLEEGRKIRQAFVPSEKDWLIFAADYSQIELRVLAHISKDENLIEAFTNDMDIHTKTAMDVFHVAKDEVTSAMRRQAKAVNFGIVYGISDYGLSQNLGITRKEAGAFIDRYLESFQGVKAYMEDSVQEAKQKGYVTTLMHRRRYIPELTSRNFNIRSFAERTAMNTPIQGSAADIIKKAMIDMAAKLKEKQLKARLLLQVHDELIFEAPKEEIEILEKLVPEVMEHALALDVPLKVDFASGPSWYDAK

[3] = tested on: T1, G4P-Bst DNA polymerase (G4P fused to N-terminus of Bst large fragment) (Geobacillus stearothermophilus); assay: activity assay; settings: primer extension, active at 15-65 C; 8 mM MgSO4, 50 mM KCl, pH 8.8; purified recombinant protein; label: 5'-FAM on primer
G4P-Taq DNA polymerase [4] = biological target: G4P-Taq DNA polymerase (UniProt P19821); assay: activity assay; settings: primer extension, active at 25-65 C; 1.5 mM MgCl2; purified recombinant protein; label: 5'-FAM on primer
G4P-Bsu DNA polymerase [5] = biological target: T2, G4P-Bsu DNA polymerase; assay: inhibition of the protein; settings: purified recombinant protein; folded or branched DNA; variant of PC-1; dose not given here
G4P-Taq DNA polymerase [6] = biological target: G4P-Taq DNA polymerase (UniProt P19821); assay: inhibition of the protein; settings: purified recombinant protein; folded or branched DNA; variant of PC-1; dose not given here

With “AGACCAGTTTTCTGGTCTTTTTTTTGGGTGGGTGGGTGGGT [PC-H7]” the “functional effect of the aptamer” value ([1]; PC-linker between SEQ 16 and SEQ 17, 7 bp stem inhibits only at 15-40 C, active at 30-65 C after UV, variant of PC-1) was “less active”.
In the case of “CCACGACGCAGACCAGTTTTCTGGTCTGCGTCGTGGTTTTTTTGGGTGGGTGGGTGGGT [PC-H16]”, the “functional effect of the aptamer” value ([1]; PC-linker between SEQ 22 and SEQ 23, inhibits at 15-65 C, active at 30-65 C after UV, variant of PC-1) is reported as “active”.
In the case of “CCAGCCTGCGGCGAGTG / TCTATTACATTCTAAGAGTTAGAGTTAGGGTCTACTCTTCTTCTCTTCTTCACTCGCCGCAGGCTGG [CSTB-A primer / Template-GM]”, the “activity on this sequence” value (G4P-Bsu DNA polymerase [2]) is reported as “active”, the “activity on this sequence” value [3] is reported as “active” and the “activity on this sequence” value (G4P-Taq DNA polymerase [4]) is reported as “active”.
“CGACGCAGACCAGTTTTCTGGTCTGCGTCGTTTTTTTGGGTGGGTGGGTGGGT [PC-H13]” was tested, and the “functional effect of the aptamer” value ([1]; PC-linker between SEQ 20 and SEQ 21, inhibits at 15-65 C, active at 30-65 C after UV, variant of PC-1) was “active”.
“CGCAGACCAGTTTTCTGGTCTGCGTTTTTT / TGGGTGGGTGGGTGGGT [PC-1 after UV photocleavage]” was tested, and the “functional effect of the aptamer” value (G4P-Bsu DNA polymerase [5]) was “less active” and the “functional effect of the aptamer” value (G4P-Taq DNA polymerase [6]) was “less active”.
For “CGCAGACCAGTTTTCTGGTCTGCGTTTTTTTGGGTGGGTGGGTGGGT [PC-1]”, the “functional effect of the aptamer” value ([1]; photocleavable PC-linker between SEQ 6 and SEQ 7, primer extension inhibited at 15-65 C without UV) was “active”.
In the case of “CGCAGACCAGTTTTCTGGTCTGCGTTTTTTTGGGTGGGTGGGTGGGT [PC-2]”, the “functional effect of the aptamer” value ([1]; PC-linker between SEQ 10 and SEQ 11 (hairpin loop), variant of PC-1) is reported as “active”.
In the case of “CGCAGACCAGTTTTCTGGTCTGCGTTTTTTTGGGTGGGTGGGTGGGT [PC-3]”, the “functional effect of the aptamer” value ([1]; PC-linker between SEQ 12 and SEQ 13 (G4 loop), variant of PC-1) is reported as “active”.
“CGCAGACCAGTTTTCTGGTCTGCGTTTTTTTGGGTGGGTGGGTGGGT [PC-4]” was tested, and the “functional effect of the aptamer” value ([1]; PC-linker between SEQ 14 and TGGGTGGGT (G4 loop), variant of PC-1) was “active”.
With “CGCAGACCAGTTTTCTGGTCTGCGTTTTTTTGGGTGGGTGGGTGGGT [PC-5]” the “functional effect of the aptamer” value ([1]; PC-linker between SEQ 15 and TGGGT (G4 loop), variant of PC-1) was “active”.
In the case of “CGCAGACCAGTTTTCTGGTCTGCGTTTTTTTGGGTGGGTGGGTGGGT [PC-H10]”, the “functional effect of the aptamer” value ([1]; PC-linker between SEQ 18 and SEQ 19, inhibits at 15-65 C, active at 30-65 C after UV, variant of PC-1) is reported as “active”.
